Experimental data as given in PubChem BioAssay AID540275 (National Center for Advancing Translational Sciences (NCATS), 2011).
Hit rate of the full screen: of about 320,000 compounds, about 620 (0.19%) were called active. This list was built around the results that the source calls inconclusive (neither active nor inactive); the mix of calls is not that of the screen. Cut-off read from the data, not from the text of the source: active = activation above about 80%; inconclusive = between about 30% and that limit; inactive = weaker than that.

Amino acid sequences for entries named in this document (tags omitted).
UniProt Q8NER1, whole entry, looked up: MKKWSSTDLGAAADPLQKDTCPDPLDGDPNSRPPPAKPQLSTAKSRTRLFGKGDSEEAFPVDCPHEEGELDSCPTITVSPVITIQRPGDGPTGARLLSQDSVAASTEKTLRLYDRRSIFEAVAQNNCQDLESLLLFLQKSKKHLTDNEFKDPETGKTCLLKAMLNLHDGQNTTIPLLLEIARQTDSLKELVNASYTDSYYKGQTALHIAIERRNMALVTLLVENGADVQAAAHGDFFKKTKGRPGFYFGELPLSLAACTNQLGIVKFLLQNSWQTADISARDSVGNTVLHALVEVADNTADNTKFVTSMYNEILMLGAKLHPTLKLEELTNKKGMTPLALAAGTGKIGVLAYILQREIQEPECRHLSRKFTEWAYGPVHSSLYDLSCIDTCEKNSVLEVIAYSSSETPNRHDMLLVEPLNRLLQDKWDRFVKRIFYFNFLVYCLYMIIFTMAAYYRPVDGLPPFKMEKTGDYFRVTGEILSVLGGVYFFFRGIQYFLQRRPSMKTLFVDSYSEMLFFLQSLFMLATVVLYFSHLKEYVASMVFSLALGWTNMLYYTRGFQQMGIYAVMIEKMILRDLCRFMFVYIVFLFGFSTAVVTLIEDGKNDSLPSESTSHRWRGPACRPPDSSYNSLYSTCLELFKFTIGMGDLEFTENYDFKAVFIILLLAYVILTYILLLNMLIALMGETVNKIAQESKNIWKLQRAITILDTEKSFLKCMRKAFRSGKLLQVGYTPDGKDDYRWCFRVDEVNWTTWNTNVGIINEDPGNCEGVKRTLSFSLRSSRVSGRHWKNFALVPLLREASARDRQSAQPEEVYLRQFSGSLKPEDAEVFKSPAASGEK

Each molecule was assayed against Transient receptor potential cation channel subfamily V member 1 (Homo sapiens) (UniProt Q8NER1) (assay: HTS Assay for Compounds that Act as Agonists of the Vanilloid Receptor 1). Details: TRPV1-expressing cells, Fluo-8 calcium influx, agonist mode; at 8.33 µM, stronger effect = higher value.
How it was run: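 Fluo-8 calcium influx in TRPV1-expressing cells, kinetic read (ex 480/em 520 nm). Compound added and read 3 min for agonist activity, followed by capsaicin at EC20 final and 2 min further read for enhancement.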
Note: 0% is about no effect.

Q: Which activation does the source give for `Cc1ccc(OCCNC(=O)c2ccc(C)cc2)cc1` here?
A: Its activation is inconclusive: 51.4%.

Q: Which activation does the source give for `O=C(/C=C/c1ccccc1)c1ccccc1` here?
A: Its activation is inconclusive: 46.2%.

Q: For `CN(Cc1c(C(=O)N/N=C/c2ccccc2)nnn1-c1nonc1N)c1ccccc1`, which activation is on record?
A: The activation was inconclusive: 35.7%.

Q: How did the activation turn out when `Cc1ccc(-c2csc3nc4c5ccccc5c(NCCCN(C)C)nn4c(=O)c23)cc1` was run?
A: The activation was inconclusive: 36.5%.

Q: `CC(C)c1ccc(NC(=O)NC2CCCCC2)cc1` was tested. Which activation did it give?
A: Its activation is inconclusive: 60.4%.

Q: For `Cc1ccc(NC(=O)Cc2cccs2)cc1Cl`, which activation is on record?
A: Its activation is inconclusive: 35.6%.

Q: With `Cc1cccc(-n2nc(C(=O)c3ccco3)cc(-c3nc4ccccc4[nH]3)c2=N)c1` as the molecule, how does the activation read?
A: The activation was inconclusive: 44.5%.

Q: With `CC1(C)Cc2c(c(-c3ccco3)nc3sc4c(NCCO)ncnc4c23)CO1` as the molecule, how does the activation read?
A: The activation was inconclusive: 54.6%.

Q: With `COc1cccc(NC(=O)CN(C)C(C)C(=O)Nc2ccc(S(=O)(=O)N3CCCC3)cc2)c1` (stereo not drawn) as the molecule, how does the activation read?
A: The activation was inactive: 19.4%.

Q: With `O=C(NC1CCCc2ccccc21)c1cc(Cl)ccn1` (stereo not drawn) as the molecule, how does the activation read?
A: Its activation is inconclusive: 35.6%.

Q: With `CN1C[C@@H]2C(c3ccccc3)C3(c4cccnc4)CC2(C3)[C@H]1c1ccccc1` (stereo partly drawn) as the molecule, how does the activation read?
A: The activation was inconclusive: 37%.

Q: `O=C(Nc1ccncc1)c1sc2ccccc2c1Cl` was tested. Which activation did it give?
A: The activation was inconclusive: 42.4%.

Q: Which activation does the source give for `CSCC[C@H](NC(=O)OC(C)(C)C)c1nnc(SCc2ccc(F)cc2)o1` here?
A: Its activation is inconclusive: 38.9%.

Q: Which activation does the source give for `CCc1nnc(NC(=O)CSc2nc(-c3ccccc3)cc(-c3ccc(F)cc3)c2C#N)s1` here?
A: Its activation is inactive: -1.18%.

Q: How did the activation turn out when `O=C(COC(=O)Cc1cccc(C(F)(F)F)c1)Nc1ccc2[nH]c(=O)[nH]c2c1` was run?
A: The activation was inconclusive: 41%.

Q: For `O=C(/C=C/c1ccco1)Nc1nc(-c2ccccc2)cs1`, which activation is on record?
A: The activation was inconclusive: 35.9%.

Q: How did the activation turn out when `C=CCn1c(=O)/c(=C\c2ccsc2)s/c1=C(/C#N)C(=O)NCCN1CCOCC1` was run?
A: The activation was inconclusive: 31.1%.

Q: How did the activation turn out when `COc1c(C)cc(NC(=O)c2ccc3c(c2)NC(=O)CO3)cc1C` was run?
A: The activation was inconclusive: 64.4%.

Q: How did the activation turn out when `CCOC(=O)N1CCN(C(=O)c2cc(COc3ccc4ncccc4c3)on2)CC1` was run?
A: The activation was inactive: 2.57%.

Q: Which activation does the source give for `Cc1cccn2c(=O)c3cc(C(=O)NCC4CCCO4)c(=N)n(C4CCCC4)c3nc12` (stereo not drawn) here?
A: Its activation is inconclusive: 57.5%.

Q: `CC12CCC(=O)N1C(C(=O)Nc1nc3ccc(Cl)cc3s1)CS2` (stereo not drawn) was tested. Which activation did it give?
A: Its activation is inactive: 2.22%.

Q: `C/C(=N\Nc1ccc(S(=O)(=O)N2CCCCC2)cn1)c1cccc(Br)c1` was tested. Which activation did it give?
A: Its activation is inconclusive: 35.2%.

Q: `Cc1scc(C(=O)N/N=C/c2ccc(Cl)s2)c1C` was tested. Which activation did it give?
A: The activation was inconclusive: 70.7%.

Q: With `O=C(CNCC1CCCCC1)Nc1ccc(OC(F)(F)F)cc1` as the molecule, how does the activation read?
A: Its activation is inactive: 20.4%.

Q: How did the activation turn out when `O=C(c1cc(COc2cccc(C(F)(F)F)c2)on1)N1CCSCC1` was run?
A: Its activation is active: 81.1%.

Q: Which activation does the source give for `COc1ccc(/C=C/C(=O)Nc2cccnc2Cl)cc1` here?
A: The activation was active: 84.9%.

Q: For `CCOC(=O)C1(Cc2ccccc2C(F)(F)F)CCN(C(=O)c2cc(C)n(C)n2)CC1`, which activation is on record?
A: The activation was inconclusive: 67.3%.

Q: Which activation does the source give for `c1ccc(Nc2ccnc(Nc3ccccc3)n2)cc1` here?
A: Its activation is inactive: 8.33%.

Q: `CC(=O)c1cccc(CN2CCCC(C(=O)Nc3ccc(-c4ccco4)cc3)C2)c1` (stereo not drawn) was tested. Which activation did it give?
A: The activation was inconclusive: 36.2%.

Q: For `Oc1[nH]c2ccccc2c1N=NC(=S)N1CCOCC1`, which activation is on record?
A: The activation was inactive: -1.18%.

Q: Which activation does the source give for `CCC(C)Sc1ccc(-c2nc3ccc(C)cn3c2NC2CCCCC2)cc1` (stereo not drawn) here?
A: The activation was inactive: 29%.

Q: Which activation does the source give for `Cn1nc(C(=O)Nc2nc(-c3ccc(F)cc3)cs2)ccc1=O` here?
A: The activation was inconclusive: 38.6%.

Q: Which activation does the source give for `Cc1ccc(S(=O)(=O)NCCNC(=O)c2ccccc2)cc1` here?
A: Its activation is inactive: -1.04%.

Q: How did the activation turn out when `O=C(C1CCCO1)N1CCN(Cc2c(O)ccc3ccccc23)CC1` (stereo not drawn) was run?
A: The activation was inactive: -0.244%.

Q: For `CN(C(=O)CSc1nc2ccccc2n1CCc1ccccc1)C1CCS(=O)(=O)C1` (stereo not drawn), which activation is on record?
A: Its activation is inconclusive: 46.1%.

Q: Which activation does the source give for `CCCCNC(=S)N1CCn2cccc2C1c1ccccc1` (stereo not drawn) here?
A: Its activation is inconclusive: 44.2%.

Q: For `CCCc1cc(C(=O)N2CCCC(Nc3ccc(C)c(C)c3)C2)n(C)n1` (stereo not drawn), which activation is on record?
A: The activation was inconclusive: 64.6%.

Q: For `Cc1nn(Cc2ccc([N+](=O)[O-])cc2)c(=O)n1-c1ccc(Cl)cc1`, which activation is on record?
A: The activation was inconclusive: 56.9%.

Q: Which activation does the source give for `Cc1[nH]c2ccccc2c1C(=O)C(=O)NC1CC1` here?
A: The activation was active: 81.8%.

Q: For `CCCCN(CC(O)COc1cccc(C)c1)CC(O)COc1cccc(C)c1` (stereo not drawn), which activation is on record?
A: The activation was inactive: 8.37%.

Q: For `COc1ccccc1Nc1ncnc2c1cnn2-c1cccc(C)c1`, which activation is on record?
A: The activation was active: 85.1%.

Q: With `COCCNc1c2c(nc3c(-c4ccccc4)c(C)nn13)CCCC2` as the molecule, how does the activation read?
A: Its activation is inactive: 26.9%.

Q: How did the activation turn out when `COc1ccc(CC(=O)NCC2CCCN(Cc3cccc(C(F)(F)F)c3)C2)cc1` (stereo not drawn) was run?
A: Its activation is inconclusive: 30.4%.

Q: How did the activation turn out when `O=C(NCc1ccc(Cl)c(Cl)c1)c1ccc2c(c1)OCO2` was run?
A: Its activation is inconclusive: 52.6%.

Q: `NS(=O)(=O)c1ccc(NC(=O)CCC2CCCCC2)cc1` was tested. Which activation did it give?
A: The activation was inconclusive: 68.4%.

Q: `COc1cccc(-c2nnc(SCC(=O)N3CCOCC3)o2)c1` was tested. Which activation did it give?
A: The activation was inconclusive: 47.7%.

Q: Which activation does the source give for `CCc1ccccc1NC(=O)Cn1nc(C(F)(F)F)cc1C1CC1` here?
A: Its activation is inactive: 8.11%.

Q: With `CCN(Cc1ccc(OC)c(F)c1)C(=O)c1cc2ccccc2o1` as the molecule, how does the activation read?
A: Its activation is inconclusive: 46.4%.

Q: For `O=C(Nc1ccc(N2CCOCC2)c(Cl)c1)C1CCCCC1`, which activation is on record?
A: The activation was inconclusive: 41.5%.

Q: Which activation does the source give for `CCN1C(=O)c2ccccc2S(=O)c2ccc(C(=O)NCc3ccc(OC)cc3)cc21` (stereo not drawn) here?
A: The activation was inconclusive: 35.6%.

Q: How did the activation turn out when `Cc1cc(C(=O)Nc2ccc(Nc3ccccc3)cc2)ccc1[N+](=O)[O-]` was run?
A: Its activation is inconclusive: 36.4%.

Q: `O=C1C=C(c2cccc(Cl)c2)C[C@@H](c2ccc(F)cc2)C1` was tested. Which activation did it give?
A: Its activation is inconclusive: 45.2%.

Q: Which activation does the source give for `O=C(Nc1ccccc1F)Nc1ccccc1Br` here?
A: Its activation is inconclusive: 42.3%.

Q: How did the activation turn out when `O=C(Oc1ccc(C(=S)N2CCOCC2)cc1)c1ccc([N+](=O)[O-])cc1[N+](=O)[O-]` was run?
A: The activation was inactive: 1.86%.

Q: Which activation does the source give for `O=C(NC(NC(=S)N1CCOCC1)C(Cl)(Cl)Cl)c1cccc2ccccc12` (stereo not drawn) here?
A: The activation was inconclusive: 57.6%.

Q: How did the activation turn out when `CCCOc1ccc(/C=N/NC(=O)c2ccc(Cn3cc([N+](=O)[O-])cn3)o2)cc1` was run?
A: The activation was inactive: 3.69%.

Q: For `N#Cc1ccc(C(=O)Nc2ccc([N+](=O)[O-])cc2)c(F)c1`, which activation is on record?
A: Its activation is inconclusive: 31.2%.

Q: For `COc1ccc(/C=C/C(=O)NC(=S)NNC(=O)c2cccs2)cc1`, which activation is on record?
A: The activation was inactive: -0.228%.
